Experimental data: patent US20150023877A1, “METHODS OF PARKINSONS DISEASE DIAGNOSIS AND MONITORING TREATMENT” (The Board of Trustees of the Leland Stanford Junior …, priority 2013, published 2015)
For at least one compound, name, drawing or mass did not settle the structure.

Assays:
[1] = tested on: gelatin microcarrier-bound pRPE cells (pRPE-GMs); test: Static PET/CT of intrastriatal implanted pRPE-GMs, 2 days after implantation; type: in vivo, rat; settings: PET 1 h after injection
Protocol: (§1) Female Wistar rats (Charles Rivers Laboratory, Wilmington, Mass., USA) weighing 176-200 g were used in this study. All animal work was conducted in accordance with the Administrative Panel on Laboratory Animal Care at Stanford University. The implantation procedure was performed following the surgical procedures described in a previous report^36. Animals were anesthetized using isofluorane and were implanted at left striatum with RPE-GMs using the following (flat-skull) coordinates: anterior posterior (AP) −0.4; medial lateral (ML) ±3.5; dorsal ventral (DV) −5.0. The control GMs-alone were implanted on the contralateral side of the striatum and performed using the same procedure. Before the implantation procedure, solutions contained RPE cells (melanotic pRPE or amelanotic ARPE-19, 12,000˜15,000 cells in 10 μL) were drawn into a sterile 50 μL Hamilton syringe (Hamilton Company, Reno, Nev.).
(§2) Small animal PET/CT imaging was performed on a Siemens Inveon small-animal multimodality PET/CT system (Preclinical Solutions; Siemens Healthcare Molecular Imaging, Knoxville, Tenn.). For each rat, ^18F-P3BZA (7.4 MBq, 200 μCi) was administrated through tail vein. […]

[2] = tested on: gelatin microcarrier-bound ARPE-19 cells (ARPE-19-GMs); test: Static PET/CT of intrastriatal implanted ARPE-19-GMs, 2 days after implantation; type: in vivo, rat; settings: PET 1 h after injection
Protocol: as §1, §2

For `CCN(CC)CCNC(=O)c1ccc([18F])cn1` [^18F-P3BZA, N-(2-(diethylamino)ethyl)-^18F-5-fluoropicolinamide], the “uptake in gelatin microcarrier-bound pRPE cells” value [1] was 3.48% ID/g±0.58, the “uptake in gelatin microcarriers alone” value ([1]; control site) was 1.19% ID/g±0.23 and the “uptake in control microcarrier-bound ARPE-19 cells” value [2] was 1.23% ID/g±0.19.
